In test [1] the test system is hAMSC donor 1. Put plainly: Hoechst total cell count ratio vs vehicle control; higher = more cells (less toxicity).
Test [2] relates to hAMSC donor 2. Described as above.
The subject of test [3] is hAMSC donor 1. Put plainly: transgenic luciferase activity (RLU/mg protein) fold change vs vehicle control (ratio); higher = more transgene expression.
The subject of test [4] is hAMSC donor 1. As to the kind of experiment: transfection efficiency (EGFP+ cells / Hoechst count) fold change vs vehicle control (ratio); higher = enhanced transfection.
In test [5] the test system is hAMSC donor 2. The description is as above.
For test [6], the system named is hAMSC donor 2. As to the kind of experiment: transgenic luciferase activity (RLU/mg protein) fold change vs vehicle control (ratio); hAMSC are human adipose-derived mesenchymal stem cells given an EGFP-luciferase plasmid by lipofection; higher = more transgene expression. The note with it: priming compound concentration 0.2 µM.
Where [7] appears, read: priming compound concentration 0.2 µM.
Where [8] appears, read: priming compound concentration 1.7 µM.
[9] abbreviates: priming compound concentration 13 µM.

Structures can show the parent of a compound that is named as a salt. ± gives the standard deviation of the averaged measurements. The list shows a part of the results. The data scatter; read single values as rough.

Regarding `NNCCc1ccccc1` [Phenelzine sulfate], the “Hoechst total cell count ratio” value in test [1] (setting [7]) stood at 1.33 ± 0.18; in test [1] (setting [8]), 1.29 ± 0.091; in test [1] (setting [9]) it was 1.23 ± 0.042; in test [2] (setting [7]), 0.947 ± 0.12; in test [2] (setting [8]), 0.958 ± 0.13; in test [2] (setting [9]) it was 1.02 ± 0.16. Besides, the transgenic luciferase activity in test [3] (setting [7]) turned out to be 0.654 ± 0.17. Further, the transfection efficiency in test [4] (setting [7]) came to 1.05 ± 0.23; in test [4] (setting [8]) it was 1.2 ± 0.18; in test [4] (setting [9]), 1.09 ± 0.11; in test [5] (setting [7]), 0.953 ± 0.2; in test [5] (setting [8]), 1.11 ± 0.064; in test [5] (setting [9]), 1.08 ± 0.24.
In the case of `CC1(C)S[C@@H]2[C@H](NC(=O)[C@H](N)c3ccccc3)C(=O)N2[C@H]1C(=O)O` [Ampicillin sodium], the “Hoechst total cell count ratio” value in test [1] (setting [7]) is 1.14 ± 0.028; in test [1] (setting [8]) it was 1.22 ± 0.25; in test [1] (setting [9]), 1.31 ± 0.11; in test [2] (setting [7]), 0.744 ± 0.02; in test [2] (setting [8]), 1.08 ± 0.029; in test [2] (setting [9]), 1.27 ± 0.17. The transgenic luciferase activity was 1.52 ± 0.97 in test [3] (setting [7]) and 0.736 ± 0.25 in test [6]. Besides, the transfection efficiency was 0.669 ± 0.2 in test [4] (setting [7]); 1.19 ± 0.69 in test [4] (setting [8]); 1.66 ± 0.4 in test [4] (setting [9]); 1.49 ± 0.23 in test [5] (setting [7]); 0.865 ± 0.064 in test [5] (setting [8]); 0.94 ± 0.09 in test [5] (setting [9]).
On to `Cc1onc(-c2c(Cl)cccc2Cl)c1C(=O)N[C@@H]1C(=O)N2[C@@H]1SC(C)(C)[C@@H]2C(=O)O` [Dicloxacillin sodium], for which the “Hoechst total cell count ratio” value came out at 1.2 ± 0.099 in test [1] (setting [7]); 1.34 ± 0.14 in test [1] (setting [8]); 1.19 ± 0.053 in test [1] (setting [9]); 0.706 ± 0.059 in test [2] (setting [7]); 0.947 ± 0.054 in test [2] (setting [8]); 0.325 ± 0.037 in test [2] (setting [9]). For the same compound, the transgenic luciferase activity in test [3] (setting [8]) turned out to be 0.846 ± 0.29. In addition, the transfection efficiency is 1.53 ± 0.43 in test [4] (setting [7]); 0.913 ± 0.04 in test [4] (setting [8]); 0.942 ± 0.29 in test [4] (setting [9]); 1.34 ± 0.018 in test [5] (setting [7]); 1.28 ± 0.19 in test [5] (setting [8]); 2.42 ± 0.07 in test [5] (setting [9]).
Regarding `CC(=O)O[C@H]1C[C@@H]2CC[C@@H]3[C@H](CC[C@@]4(C)[C@H]3C[C@H]([N+]3(C)CCCCC3)[C@@H]4OC(C)=O)[C@@]2(C)C[C@@H]1N1CCCCC1` [Vecuronium bromide], the “Hoechst total cell count ratio” value in test [1] (setting [7]) turned out to be 0.895 ± 0.14; in test [1] (setting [8]) it was 0.845 ± 0.21; in test [1] (setting [9]), 0.973 ± 0.13; in test [2] (setting [7]), 1.5 ± 0.42; in test [2] (setting [8]) it was 1.16 ± 0.22; in test [2] (setting [9]) it was 0.946 ± 0.4. In test [3] (setting [9]), the transgenic luciferase activity was found to be 1.19 ± 0.81. For the same compound, the transfection efficiency came out at 1.25 ± 0.23 in test [4] (setting [7]); 1.44 ± 0.19 in test [4] (setting [8]); 0.957 ± 0.22 in test [4] (setting [9]); 1.08 ± 0.12 in test [5] (setting [7]); 1.3 ± 0.14 in test [5] (setting [8]); 1.21 ± 0.37 in test [5] (setting [9]).
Take `CCn1cc(C(=O)O)c(=O)c2cc(F)c(N3CCNCC3)cc21` [Norfloxacin]: the “Hoechst total cell count ratio” value in test [1] (setting [7]) amounted to 1.31 ± 0.23; in test [1] (setting [8]) it was 1.29 ± 0.13; in test [1] (setting [9]), 1.33 ± 0.03; in test [2] (setting [7]), 1 ± 0.19; in test [2] (setting [8]), 1.04 ± 0.071; in test [2] (setting [9]), 1.06 ± 0.24. Moreover, the transgenic luciferase activity in test [3] (setting [8]) stood at 0.477 ± 0.32. The transfection efficiency in test [4] (setting [7]) was found to be 1.51 ± 0.15; in test [4] (setting [8]), 0.8595 ± 0.0082; in test [4] (setting [9]), 1.1 ± 0.17; in test [5] (setting [7]), 1.15 ± 0.18; in test [5] (setting [8]), 1.01 ± 0.37; in test [5] (setting [9]) it was 1.02 ± 0.28.
On to `CCc1nc(N)nc(N)c1-c1ccc(Cl)cc1` [Pyrimethamine], for which the “Hoechst total cell count ratio” value in test [1] (setting [7]) stood at 1.55 ± 0.24; in test [1] (setting [8]), 1.44 ± 0.11; in test [1] (setting [9]) it was 1.42 ± 0.17; in test [2] (setting [7]) it was 0.635 ± 0.053; in test [2] (setting [8]), 1.11 ± 0.2; in test [2] (setting [9]), 1.02 ± 0.12. Also, the transgenic luciferase activity in test [3] (setting [8]) was 0.525 ± 0.14. The transfection efficiency came out at 1.28 ± 0.23 in test [4] (setting [7]); 1.16 ± 0.19 in test [4] (setting [8]); 1.45 ± 0.31 in test [4] (setting [9]); 1.42 ± 0.14 in test [5] (setting [7]); 1.26 ± 0.08 in test [5] (setting [8]); 1.28 ± 0.25 in test [5] (setting [9]).
With `C#C[C@]1(O)CC[C@H]2[C@@H]3CCC4=CC(=O)CC[C@@H]4[C@H]3CC[C@@]21C` [19-Norethindrone], the “Hoechst total cell count ratio” value in test [1] (setting [7]) is 1.21 ± 0.099; in test [1] (setting [8]), 1.14 ± 0.075; in test [1] (setting [9]) it was 1.22 ± 0.049; in test [2] (setting [7]), 1.11 ± 0.31; in test [2] (setting [8]), 1.38 ± 0.027; in test [2] (setting [9]) it was 0.999 ± 0.39. Further, the transgenic luciferase activity in test [3] (setting [8]) came out at 0.886 ± 0.17. In addition, the transfection efficiency in test [4] (setting [7]) worked out at 1.59 ± 0.3; in test [4] (setting [8]), 1.19 ± 0.18; in test [4] (setting [9]) it was 1.41 ± 0.3; in test [5] (setting [7]), 1.08 ± 0.12; in test [5] (setting [8]), 1.09 ± 0.03; in test [5] (setting [9]), 1.43 ± 0.22.

The values above are taken from the supplement of paper PMC7238544.
